Values joined by “and” are separate entries in the source; they are usually repeats but may differ in a detail not shown here. Equal entries are not always repeated. Screen size: about 400,000 compounds; about 13,000 (3.2%) were called active. Inconclusive means that the source gave no clear call. Such entries were picked first, then a sample of the others. The call rests on the fitted dose curve; in most records, active means well fitted cell-killing curve with a large enough effect; inconclusive means small, poorly fitted or top-dose-only effect, or effect the other way; inactive means flat fitted curve, though single readings scatter. Potencies beside an inconclusive call are fits to weak or partial responses and may not hold up.
Assay: qHTS assay for MDR1-selective chemotherapeutics: Primary screen using the drug-selected MDR subline cells KB-V1; further: nearly all actives have a fitted effect of over 60% in size
Conditions: KB-V1 MDR cells viability, CellTiter-Glo, 72 h; activity change, negative = cytotoxicity: at 46.1 µM (top of the series)
Procedure, shortened: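 Drug-selected KB-V1 cells, grown in DMEM lacking phenol red with 10% FBS, receive compound titrations; after three days at 37 degrees C, surviving cell ATP is quantified by CellTiter-Glo luminescence and responses normalized and curve-fitted.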
On the % scale 0 is the no-effect control and ±100 the full control effect; potency means the concentration at half of the fitted maximal effect.

Row | SMILES | Potency | activity change, negative = cytotoxicity
1 | CN(C)CCCNc1cc(O)c2ncccc2c1 | inconclusive: 11.6 µM [cytotoxic, partial curve, poor fit] | –
2 | COCCn1c(=NC(=O)c2ccc(S(=O)(=O)N3CCc4ccccc4C3)cc2)sc2cc(OC)ccc21 | inconclusive: 4.11 µM [cytotoxic, partial curve, poor fit] | –
3 | CCOC(=O)CN(C(=O)CSc1nnc2c(n1)[nH]c1ccc(F)cc12)c1ccccc1 | inconclusive: 13 µM [cytotoxic, partial curve] | –
4 | OCCNCc1cc(Br)ccc1OCc1ccccc1 | active: 14.6 µM | –
5 | CCN1C(=O)c2ccccc2S(=O)c2ccc(C(=O)N3CCN(c4ccccc4)CC3)cc21 (configuration not stated) | inconclusive: 11.6 µM [cytotoxic, single point] | –
6 | CC(=O)C[C@H]1c2cc(C(F)(F)F)ccc2S(=O)(=O)N1c1ccccc1 | inconclusive: 16.4 µM [cytotoxic, single point] and active: 8.2 µM | –
7 | Cc1cccc(CN2CCN(C3CN(Cc4cn(Cc5ccccc5C(F)(F)F)nn4)S(=O)(=O)C3)CC2)c1 (configuration not stated) | inconclusive: 29.1 µM [cytotoxic, single point] | –
8 | CCc1ccc(CNC(=O)C2CC(=O)N(CCc3ccc(C)cc3)C2)cc1 (configuration not stated) | inconclusive: 18.4 µM [cytotoxic, single point] | –
9 | COc1cc(CC2C(=O)OCC2C(=O)c2ccc3c(c2)OCO3)cc(OC)c1OC (configuration not stated) | inconclusive: 11.6 µM [cytotoxic, partial curve] | –
10 | Cc1ccccc1S(=O)(=O)N(C)C[C@@H]1OCc2cnnn2CCCC(=O)N([C@@H](C)CO)C[C@H]1C | inconclusive: 16.4 µM [rising, single point] | –
11 | CCOC(=O)c1sc(NC(=O)C(C)Sc2nc(N)cc(=O)[nH]2)nc1C (configuration not stated) | – | inactive: 0%
12 | CC(Oc1ccc2c(-c3ccccc3)cc(=O)oc2c1)C(=O)N[C@H](Cc1c[nH]c2ccccc12)C(=O)O (some centres not stated) | inconclusive: 0.291 µM [rising, partial curve, poor fit] | –
13 | CCC1C(=O)CC(c2ccc([N+](=O)[O-])cc2)NC1c1ccc([N+](=O)[O-])cc1 (configuration not stated) | inconclusive: 29.1 µM [cytotoxic, single point] | –
14 | CCOc1cc(/C=N/NC(=O)c2nn(C)cc2Br)ccc1OCc1ccccc1 | active: 16.4 µM | –
15 | Cc1oc(-c2ccc(Cl)cc2)nc1CN1CCC(C(=O)NCCCN2CCCC(C)C2)CC1 (configuration not stated) | – | inactive: 21.4%
16 | O=C(O)COc1ccc(/C=N/NC(=O)C2CCCN2S(=O)(=O)c2ccc(Cl)cc2)cc1 (configuration not stated) | inconclusive: 29.1 µM [rising, single point] | –
17 | N#Cc1ccc(-c2cccs2)nc1SCc1cccnc1 | inconclusive: 0.291 µM [cytotoxic, full curve, poor fit] | –
18 | CCN(CC)S(=O)(=O)c1ccc(N2CCOCC2)c(NC(=O)c2ccc(F)cc2)c1 | inconclusive: 29.1 µM [cytotoxic, partial curve, poor fit] | –
19 | CCN(CC)c1cc(C)c2cc(NC(=O)c3ccccc3F)ccc2n1 | – | inactive: -1.9%
20 | COc1cc2c(NC3CCN(C)CC3)nc(N3CCCN(C)CC3)nc2cc1OCCCN1CCOCC1 | – | inactive: -12.8%
21 | CCOC(=O)c1c(NC(=O)CN2C(=O)NC3(CCCC3)C2=O)sc(C)c1CC | inconclusive: 6.51 µM [cytotoxic, partial curve] | –
22 | Cc1cccc(OCC(=O)NNC(=O)c2ccc3nc[nH]c3c2)c1 | – | inactive: 24.2%
23 | CCn1c(C)c(C)c2cc(C(=O)Nc3cccc(Cl)c3)ccc21 | inconclusive: 23.1 µM [cytotoxic, partial curve] | –

Fetched by compound from the list above (six):
Row | SMILES | Potency | activity change, negative = cytotoxicity
14 | CCOc1cc(/C=N/NC(=O)c2nn(C)cc2Br)ccc1OCc1ccccc1 | active: 16.4 µM | –
9 | COc1cc(CC2C(=O)OCC2C(=O)c2ccc3c(c2)OCO3)cc(OC)c1OC (configuration not stated) | inconclusive: 11.6 µM [cytotoxic, partial curve] | –
21 | CCOC(=O)c1c(NC(=O)CN2C(=O)NC3(CCCC3)C2=O)sc(C)c1CC | inconclusive: 6.51 µM [cytotoxic, partial curve] | –
12 | CC(Oc1ccc2c(-c3ccccc3)cc(=O)oc2c1)C(=O)N[C@H](Cc1c[nH]c2ccccc12)C(=O)O (some centres not stated) | inconclusive: 0.291 µM [rising, partial curve, poor fit] | –
23 | CCn1c(C)c(C)c2cc(C(=O)Nc3cccc(Cl)c3)ccc21 | inconclusive: 23.1 µM [cytotoxic, partial curve] | –
8 | CCc1ccc(CNC(=O)C2CC(=O)N(CCc3ccc(C)cc3)C2)cc1 (configuration not stated) | inconclusive: 18.4 µM [cytotoxic, single point] | –

More results.

Row | SMILES | Potency | activity change, negative = cytotoxicity
24 | CN(C(=O)c1ccc2c(c1)OCO2)C1CCS(=O)(=O)C1 (configuration not stated) | inconclusive: 14.6 µM [rising, partial curve] | –
25 | O=C1CS/C(=C/C(=O)c2cccc(Cl)c2)N1 | – | inactive: -5.94%
26 | O=P(c1ccccc1)(c1ccccc1)c1cc(Br)cc(Br)c1OCCO | inconclusive: 16.4 µM [cytotoxic, single point] | –
27 | CN(C)c1ccc(/C=C2/CCCc3c2nc2ccccc2c3C(=O)O)cc1 | – | inactive: 5.77%
28 | O=C(Nc1ccc(N2CCOCC2)nc1N1CCOCC1)c1cccc(C(F)(F)F)c1 | – | inactive: -4.89%
29 | CCc1ccc(/C=C2\SC(=S)N(CCCC(=O)Nc3ccccc3C(=O)O)C2=O)cc1 | inconclusive: 14.6 µM [rising, single point] | –
30 | COCCn1ccc2c(OCC(=O)Nc3ccccc3OC)cccc2c1=O | inconclusive: 29.1 µM [cytotoxic, single point] | –
31 | O=C(COC(=O)c1ccc2c(c1)OCCO2)NCc1ccccc1 | inconclusive: 16.4 µM [cytotoxic, single point] | –
32 | CNC(=O)/C=C/c1cc(C(=O)c2ccc(Cl)cc2Cl)cn1C | inconclusive: 32.6 µM [cytotoxic, single point] | –
33 | C/C(=N\NC(=S)Nc1ccc(C(C)C)cc1)c1ccc2c(c1)OCO2 | inconclusive: 20.6 µM [cytotoxic, partial curve, poor fit] | –
34 | COc1ccc(C(=O)NC(C(=O)N2CCN(c3ccccc3O)CC2)C(C)C)cc1 (configuration not stated) | inconclusive: 2.31 µM [cytotoxic, full curve] | –
35 | CSc1ccc(Cn2c(C)c(C(=O)NCc3cccc(C(F)(F)F)c3)sc2=O)cc1 | inconclusive: 20.6 µM [cytotoxic, single point] | –
36 | CCOC(=O)CSC1=C(C#N)C(c2ccc(C)s2)CC(=O)N1 (configuration not stated) | active: 1.84 µM | –
37 | COc1cccc(C2Cc3ccccc3C(=O)O2)c1 (configuration not stated) | inconclusive: 29.1 µM [cytotoxic, single point] | –
38 | O=C(CSCc1ccc(Cl)cc1)Nc1ccc(S(=O)(=O)N2CCCCCC2)cc1 | inconclusive: 16.4 µM [cytotoxic, partial curve] | –
39 | Cc1ccc(-c2csc(=S)n2CC(=O)OCC(=O)NCc2ccco2)cc1 | inconclusive: 14.6 µM [cytotoxic, partial curve] | –
40 | CC(NC(=O)COc1ccc(-c2nnco2)cc1)c1ccc(Cl)cc1Cl (configuration not stated) | active: 20.6 µM | –
41 | CC(C)CC(=O)C1CCCN(C(=O)c2ccc3oc(Cc4ccccc4)nc3c2)C1 (configuration not stated) | – | inactive: -6.97%
42 | Cc1ccccc1Nc1c(-c2c[nH]c3ccccc23)nc2ccccn12 | – | inconclusive: -2.07%
43 | Cc1noc(C)c1COc1ccccc1C(=O)NC(C)c1ccc(Cl)cc1 (configuration not stated) | – | inactive: 0.944%
44 | CC1CCN(S(=O)(=O)c2ccc3nc(NCc4ccc(F)cc4)ccc3c2)CC1 | – | inactive: -18%
45 | CN1OCC(S(=O)(=O)c2ccccc2)C1c1ccccc1 (configuration not stated) | inconclusive: 29.1 µM [rising, single point] | –
46 | COc1ccc(CCNc2cc(N3CCN(C(=O)c4ccccc4F)CC3)ccc2[N+](=O)[O-])cc1OC | inconclusive: 14.6 µM [cytotoxic, partial curve] | –

Row | SMILES | Potency | activity change, negative = cytotoxicity
47 | Cc1ccc(S(=O)(=O)N(C)c2ccc(C(=O)N3CCc4ccccc4C3)cc2)cc1 | inconclusive: 32.6 µM [cytotoxic, single point] | –
48 | OCCN1CCN(c2ncnc3c2c(-c2ccccc2)cn3-c2ccc(Br)cc2)CC1 | inconclusive: 29.1 µM [cytotoxic, single point] | –
49 | Cc1noc(C)c1S(=O)(=O)N(C)C[C@H]1Oc2ccc(NC(=O)NC(C)C)cc2C(=O)N([C@H](C)CO)C[C@@H]1C | – | inactive: 0%
50 | CCN(CC)c1ccc(/C=C/c2c(C)cnc3ccccc23)cc1 | – | inconclusive: -12.1%
51 | CC1CCCN(CCCNC(=O)C2CCC(CNS(=O)(=O)c3cccc4nsnc34)CC2)C1 (configuration not stated) | inconclusive: 23.1 µM [rising, partial curve, poor fit] | –
52 | CC(C)(C)OC(=O)N1CCC(c2nnc(SCc3ccccc3F)o2)CC1 | inconclusive: 23.1 µM [cytotoxic, partial curve] | –
53 | O=C(NC1CC1)[C@@H]1CSC2c3ccccc3C(=O)N21 (some centres not stated) | inconclusive: 29.1 µM [rising, single point] | –
54 | O=C(CSc1nnnn1C1CC1)Nc1cccc(S(=O)(=O)N2CCCC2)c1 | inconclusive: 18.4 µM [cytotoxic, single point] | –
55 | O=C1CN(S(=O)(=O)c2ccc(Cl)cc2)CC(=O)N1CCc1ccccc1 | – | inactive: -21.2%
56 | Cn1c(NCc2ccccc2F)nc2cc(-c3ccsc3)sc2c1=O | inconclusive: 3.66 µM [cytotoxic, full curve, poor fit] | –
57 | CCCCOC(=O)Nc1ccc(N2CCCCC2)cc1 | inconclusive: 29.1 µM [cytotoxic, single point] | –
58 | Cc1cccc(C)c1NC(=O)C(c1ccccc1F)n1c(=O)c(-c2ccco2)nc2ccccc21 (configuration not stated) | inconclusive: 16.4 µM [cytotoxic, partial curve] | –
59 | CN1CCC(Oc2ccc(Sc3ccccc3)cc2)CC1 | inconclusive: 29.1 µM [cytotoxic, single point] | –
60 | O=C1CCCC(O)=C1C=NCc1ccccc1 | – | inactive: 6.8%
61 | O=C(Nc1nc(-c2ccccc2)cs1)c1cccc([N+](=O)[O-])c1 | active: 23.1 µM | –
62 | Cc1ccc(N2CCN(C(=O)c3cccs3)CC2)cc1C | inconclusive: 23.1 µM [cytotoxic, single point] | –
63 | CCc1ccccc1NC(=O)CSCc1cnn(-c2ccccc2)c1-n1cccc1 | – | inactive: -25%
64 | Cc1ccc(Cn2cc(C(=O)c3ccc(F)cc3)c(=O)c3cc4c(cc32)OCCO4)cc1 | inconclusive: 18.4 µM [cytotoxic, partial curve, poor fit] | –
65 | CCCCN(C(=O)Cn1ncc(Cl)c(Cl)c1=O)c1c(N)n(CC(C)C)c(=O)[nH]c1=O | – | inactive: 11.6%
66 | N#Cc1ccccc1NC(=O)c1ccc2c(Cl)c3c(nc2c1)CCCC3 | active: 8.2 µM | –
67 | Cc1nc2ccccc2nc1CC(O)(c1ccccc1)c1ccccc1 | – | inactive: -13.9%

From PubChem BioAssay AID1347076 (National Center for Advancing Translational Sciences (NCATS), 2019)
